Experimental findings from PubChem BioAssay AID284 (DTP/NCI, 2004) are described below.

The list shows only some results of the screen, not a fair sample: its compounds were picked by chemical class. Not every dose and run of a compound is shown. T/C: endpoint of the treated group in % of that of the vehicle group. For survival time, this PubChem deposit counts one and a half times the control or more as active, and values a quarter to a half above the control carry no call in these data; other NCI protocols may use other cut-offs. Some entries show no survivor count and are marked so; the dose need not have been tolerated. Schedule codes are those of the source, taken here to give the interval after Q, in days (D) or hours (H), and the number of doses after X. Some schedule codes hold Z or #, which are not explained here.

In the test the test system is BDF1 mice, L1210/MTX-resistant leukemia ip, survival T/C. In words: NCI In Vivo Anticancer Drug Screen. Data for tumor model L1210 Leukemia resistant to Methotrexate; NSC 740 (intraperitoneal) in B6D2F1 (BDF1) mice. As to conditions: T/C endpoint: mean survival time, higher T/C = longer survival. The procedure:
The antitumor activity of compounds was measured in mice bearing transplantable tumors. Survival or tumor size were measured and the results are expressed as the measurement made in the treated group (T) divided by the measurement made in the vehicle treated control group (C). The tumor model used in this assay is L1210 Leukemia resistant to Methotrexate; NSC 740 (intraperitoneal) in B6D2F1 (BDF1) mice

[1] abbreviates: dose: 0.5 mg/kg/injection, schedule: Q01DX010 (ip), vehicle: saline.
Where [2] appears, read: dose: 1.0 mg/kg/injection, schedule: Q01DX010 (ip), vehicle: saline.
Where [3] appears, read: dose: 2.0 mg/kg/injection, schedule: Q01DX010 (ip), vehicle: saline.
Setting [4] is: dose: 0.5 mg/kg/injection, schedule: Q01DX Z (ip), vehicle: saline.
Setting [5] is: dose: 1.0 mg/kg/injection, schedule: Q01DX Z (ip), vehicle: saline.
Where [6] appears, read: dose: 2.0 mg/kg/injection, schedule: Q01DX Z (ip), vehicle: saline.
[7] abbreviates: dose: 4.0 mg/kg/injection, schedule: Q01DX Z (ip), vehicle: saline.

As to `NC(Cc1ccccc1N(CCCl)CCCl)C(=O)O` (stereo not given), the T/C is 144 % of control [survivor count not shown] (dose: 0.25 mg/kg/injection, schedule: Q01DX010 (ip), vehicle: saline); 148 % of control [survivor count not shown] under setting [1]; 134 % of control [survivor count not shown] (dose: 0.5 mg/kg/injection, schedule: Q01DX Z (ip), vehicle: methylcellulose (MC)); 94 % of control [survivor count not shown] under setting [2]; 96 % of control [survivor count not shown] under setting [3].

Consider `ClCCN(CCCl)Cc1nc2ccccc2[nH]1`, for which the T/C by setting is: (dose: 0.18 mg/kg/injection, schedule: Q01DX Z (ip), vehicle: saline) 117 % of control [survivor count not shown]; (dose: 0.35 mg/kg/injection, schedule: Q01DX Z (ip), vehicle: saline) 119 % of control [survivor count not shown]; under setting [4], 119 % of control [survivor count not shown]; (dose: 0.7 mg/kg/injection, schedule: Q01DX Z (ip), vehicle: saline) 128 % of control [survivor count not shown]; under setting [5], 105 % of control [survivor count not shown]; (dose: 1.4 mg/kg/injection, schedule: Q01DX Z (ip), vehicle: saline) 148 % of control [survivor count not shown]. Moreover, the T/C by setting is: under setting [6], 100 % of control [survivor count not shown]; under setting [7], 99 % of control [survivor count not shown]; (dose: 5.0 mg/kg/injection, schedule: Q01DX Z (ip), vehicle: carboxymethylcellulose (CMC)) 104 % of control [survivor count not shown]; (dose: 10.0 mg/kg/injection, schedule: Q01DX Z (ip), vehicle: carboxymethylcellulose (CMC)) 100 % of control [survivor count not shown].

Consider `O=C(O)CN(CCCl)CCCl`, for which the T/C (dose: 0.25 mg/kg/injection, schedule: Q01DX Z (ip), vehicle: saline) was 115 % of control [survivor count not shown]; the T/C (dose: 0.37 mg/kg/injection, schedule: Q01DX Z (ip), vehicle: saline) is 128 % of control [survivor count not shown]; the T/C under setting [4] is 120 % of control [survivor count not shown]; the T/C (dose: 0.63 mg/kg/injection, schedule: Q01DX010 (ip), vehicle: saline) was 177 % of control [survivor count not shown]; the T/C (dose: 0.75 mg/kg/injection, schedule: Q01DX Z (ip), vehicle: saline) is 133 % of control [survivor count not shown]; the T/C (dose: 1.25 mg/kg/injection, schedule: Q01DX010 (ip), vehicle: saline) is 243 % of control [survivor count not shown]. For the same compound, the T/C by setting is: under setting [6], 101 % of control [survivor count not shown]; (dose: 2.5 mg/kg/injection, schedule: Q01DX010 (ip), vehicle: saline) 102 % of control [survivor count not shown]; under setting [7], 94 % of control [survivor count not shown]; (dose: 5.0 mg/kg/injection, schedule: Q01DX010 (ip), vehicle: saline) 88 % of control [survivor count not shown].

On to `ClCCNCCCl`, for which the T/C runs as follows: (dose: 5.0 mg/kg/injection, schedule: Q01DX Z (ip), vehicle: saline) 121 % of control [survivor count not shown]; (dose: 7.5 mg/kg/injection, schedule: Q01DX Z (ip), vehicle: saline) 133 % of control [survivor count not shown]; (dose: 10.0 mg/kg/injection, schedule: Q01DX Z (ip), vehicle: saline) 141 % of control [survivor count not shown]; (dose: 15.0 mg/kg/injection, schedule: Q01DX Z (ip), vehicle: saline) 141 % of control [survivor count not shown]; (dose: 18.8 mg/kg/injection, schedule: Q01DX010 (ip), vehicle: saline) 142 % of control [survivor count not shown]; (dose: 37.5 mg/kg/injection, schedule: Q01DX010 (ip), vehicle: saline) 131 % of control [survivor count not shown]. Moreover, the T/C by setting is: (dose: 75.0 mg/kg/injection, schedule: Q01DX010 (ip), vehicle: saline) 91 % of control [survivor count not shown]; (dose: 75.0 mg/kg/injection, schedule: Q01DX Z (ip), vehicle: saline) 90 % of control [survivor count not shown].

`CC(C(=O)O)N(CCCl)CCCl` (stereo not given): the T/C reads like this: under setting [1], 183 % of control [survivor count not shown]; under setting [4], 105 % of control [survivor count not shown]; under setting [2], 218 % of control [survivor count not shown]; under setting [5], 110 % of control [survivor count not shown]; under setting [3], 100 % of control [survivor count not shown]; under setting [6], 123 % of control [survivor count not shown]. Moreover, under setting [7], the T/C was 105 % of control [survivor count not shown].
